Data published in paper PMC12820563, “FoxP3 forms a head-to-head dimer in vivo and stabilizes its multimerization on adjacent microsatellites”.

The chains behind the UniProt entries cited, without tags or fusion partners. Residues count along the entry.
UniProt Q99JB6, 188-423: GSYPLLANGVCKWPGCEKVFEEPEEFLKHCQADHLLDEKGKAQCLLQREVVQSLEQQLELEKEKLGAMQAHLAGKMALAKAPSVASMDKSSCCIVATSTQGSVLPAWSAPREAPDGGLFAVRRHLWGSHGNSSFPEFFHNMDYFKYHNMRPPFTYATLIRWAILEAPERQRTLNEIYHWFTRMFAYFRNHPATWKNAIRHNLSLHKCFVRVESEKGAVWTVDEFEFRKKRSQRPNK

Experiments:
FoxP3dN (Mus musculus) = FoxP3dN (Mus musculus) (UniProt Q99JB6); assay: EMSA; conditions: EMSA: 20 mM HEPES pH 7.5, 150 mM NaCl, 1.5 mM MgCl2, 2 mM DTT, 4 C, 0.2 uM DNA (RBR-FKH 0.8 uM, NFAT 0.4 uM); recombinant protein; residues 188-423
[1] = target: MBP-FoxP3dN (Mus musculus) (UniProt Q99JB6); assay: pull-down; conditions: Pull-down: 20 mM Tris-HCl pH 7.5, 100 mM NaCl, 1.5 mM MgCl2, room temperature, 0.4 uM MBP protein, 0.1 uM DNA (NFAT 0.2 uM), recombinant protein, residues 188-423, protein details: His6-MBP
[2] = target: T1, MBP-FoxP1dN (Mus musculus) (UniProt P58462); assay: pull-down; conditions: Pull-down: 20 mM Tris-HCl pH 7.5, 100 mM NaCl, 1.5 mM MgCl2, room temperature, 0.4 uM MBP protein, 0.1 uM DNA (NFAT 0.2 uM); recombinant protein; residues 342-579; protein details: His6-MBP
T1 sequence (looked up): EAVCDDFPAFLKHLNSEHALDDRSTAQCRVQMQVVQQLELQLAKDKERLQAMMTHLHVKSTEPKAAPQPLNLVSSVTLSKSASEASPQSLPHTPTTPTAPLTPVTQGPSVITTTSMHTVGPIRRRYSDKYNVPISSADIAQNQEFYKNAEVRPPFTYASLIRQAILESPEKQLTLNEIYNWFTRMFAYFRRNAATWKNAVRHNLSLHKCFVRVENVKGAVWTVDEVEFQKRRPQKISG

[3] = system: FoxP2 RBR-FKH + NFAT1 DBD; assay: EMSA; conditions: monomer; EMSA: 20 mM HEPES pH 7.5, 150 mM NaCl, 1.5 mM MgCl2, 2 mM DTT, 4 C, 0.2 uM DNA (RBR-FKH 0.8 uM, NFAT 0.4 uM); recombinant protein
[4] = system: FoxP4 RBR-FKH + NFAT1 DBD; assay: EMSA; conditions: monomer; EMSA: 20 mM HEPES pH 7.5, 150 mM NaCl, 1.5 mM MgCl2, 2 mM DTT, 4 C, 0.2 uM DNA (RBR-FKH 0.8 uM, NFAT 0.4 uM); recombinant protein
[5] = system: FoxP3RBR-C-Platypus-mFoxP3FKH + NFAT1 DBD; assay: EMSA; conditions: dimer, affinity modestly reduced for some species; EMSA: 20 mM HEPES pH 7.5, 150 mM NaCl, 1.5 mM MgCl2, 2 mM DTT, 4 C, 0.2 uM DNA (RBR-FKH 0.8 uM, NFAT 0.4 uM); recombinant protein
[6] = system: FoxP3RBR-C-Frog-mFoxP3FKH + NFAT1 DBD; assay: EMSA; conditions: dimer, affinity modestly reduced for some species; EMSA: 20 mM HEPES pH 7.5, 150 mM NaCl, 1.5 mM MgCl2, 2 mM DTT, 4 C, 0.2 uM DNA (RBR-FKH 0.8 uM, NFAT 0.4 uM); recombinant protein
[7] = system: FoxP3RBR-C-Zebrafish-mFoxP3FKH + NFAT1 DBD; assay: EMSA; conditions: dimer, affinity modestly reduced for some species; EMSA: 20 mM HEPES pH 7.5, 150 mM NaCl, 1.5 mM MgCl2, 2 mM DTT, 4 C, 0.2 uM DNA (RBR-FKH 0.8 uM, NFAT 0.4 uM); recombinant protein
[8] = system: FoxP3RBR-C-Opossum-mFoxP3FKH + NFAT1 DBD; assay: EMSA; conditions: dimer, affinity modestly reduced for some species; EMSA: 20 mM HEPES pH 7.5, 150 mM NaCl, 1.5 mM MgCl2, 2 mM DTT, 4 C, 0.2 uM DNA (RBR-FKH 0.8 uM, NFAT 0.4 uM); recombinant protein

Sequence: AAATTGTGCATCTCGAGATGCACAATTT (double strand) [G2-G2_#1]
- binding result (FoxP3dN (Mus musculus)): binds more weakly

Sequence: AAATTGTGCATTTCGAAATGCACAATTT (double strand) [G2-G2_#6]
- binding result (FoxP3dN (Mus musculus)): binds more weakly

Sequence: AAATTTGCCGCGTCGAGTAAACAAATTT (double strand) [sFKHM (Fig S1F)]
- binding result ([1]; negative control): binds more weakly

Sequence: AAATTTGTTTACTCGAAATGCACAATTT (double strand) [G1-G2_#6]
- binding result (FoxP3dN (Mus musculus)): binds more weakly

Sequence: AAATTTGTTTACTCGAGATGCACAATTT (double strand) [G1-G2_#1]
- binding result (FoxP3dN (Mus musculus)): binds more weakly

Sequence: ATGAGATAGCTTACCTACACGTTAGCAGTA (double strand) [Random (Fig 1C)]
- binding result [1]: no binding

Sequence: GAATTGCGTGCAAGCTTGCACGCAAATT (double strand) [DNA c IR-GCGTGCA spacer mutant]
- binding result [1]: no binding

Sequence: GAATTGCGTGCATCGATGCACGCAAATT (double strand) [DNA a/b IR-GCGTGCA]
- binding result [1]: binds

Sequence: GAATTTGTTTACAGCTGTAAACAAAATT (double strand) [DNA g IR-FKHM spacer mutant]
- binding result [1]: binds

Sequence: GAATTTGTTTACGATCGTAAACAAAATT (double strand) [DNA f IR-FKHM spacer mutant]
- binding result [1]: binds

Sequence: TAGGAAAATTTGTTTACTCGACGCGGCATC (double strand) [sFKHM (Fig 1C)]
- binding result ([1]; negative control in legend): binds more weakly
- binding result [2]: binds

Sequence: TAGGAAAATTTGTTTACTCGAGTAAACATC (double strand) [IR-FKHM (Fig 1C)]
- binding result [2]: binds

Sequence: TTAGCAGTATTCATCAGCTGGGAGAACA (double strand) [random (Fig S1F)]
- binding result [1]: no binding

Sequence: TTAGGAAAATTTGTTTACTCCTCGCGGCAAA (double strand) [DNA2 (NFAT sFKHM)]
- binding result [3]: binds
- binding result [4]: binds

Sequence: TTAGGAAAATTTGTTTACTCGAGTAAACAAA (double strand) [DNA1 (NFAT IR-FKHM)]
- binding result [5]: binds
- binding result [6]: binds
- binding result [7]: binds
- binding result [3]: binds
- binding result [4]: binds
- binding result [8]: binds

Sequence: TTGAAGCGTGCAAGCTTGCACGCTTAAA (double strand) [DNA e IR-GCGTGCA flank and spacer mutant]
- binding result [1]: no binding

Sequence: TTGAAGCGTGCAGATCTGCACGCTTAAA (double strand) [DNA d IR-GCGTGCA flank and spacer mutant]
- binding result [1]: no binding

Sequence: TTGAATGTTTACAGCTGTAAACATTAAA (double strand) [DNA i IR-FKHM flank and spacer mutant]
- binding result [1]: binds

Sequence: TTGAATGTTTACGATCGTAAACATTAAA (double strand) [DNA h IR-FKHM flank and spacer mutant]
- binding result [1]: binds

For some assays here: Negatives hold for the conditions tested. At least one verdict rests on a figure or table, not on a statement of the authors. For at least one entry, the source does not settle the construct or the ends of the probe. For some assays here: The comparison behind a weaker result is the experiment's own reference, which may not be listed here. For some assays here: Tags and fusion partners may be left off the protein sequences shown.
